# Measured values published in article doi:10.1101/2021.05.31.446447.
# These are yes or no findings as the source states them, for the method shown. Binding seen in cells or lysates may run through a third protein. Binding can be weak; no strength is given. Tags and fused reporters may be left off the sequences shown.
# Biological target: dCTCF C-terminal domain, GST-fused (Drosophila melanogaster)
# Test: pull-down
row,binding,Binder
1,binds,"CP190 BTB domain [1-126], 6xHis-thioredoxin-fused (domain or fragment, UniProt Q24478 1-126) MGEVKSVKVDNWGVFFLQKLQNFFNKTDYCDLTLQFRDNSQLKVHRLVLSACTDYFNVLEQTCEIVDDALIMPNEFQADVVVPIVNFMYTGTLEFELKMYGKLLRTAKEMNMTVLLKLLEAHRRTM"
2,binds,"CP190 M domain [245-606], 6xHis-thioredoxin-fused (domain or fragment, UniProt Q24478 245-606) KEFAEQQRMRKQIAAEYGDNDPEYDGGMLYDDVHAGDDDDDDMPPQPSTSKQQSPQGTQTQLEHGSTTIILKQDSPSQTPTIIVKDSSNAKLNHTKIIAEVLRQYPHIVKGHKNIKLKIMPNTPAAPTEKSAPATVKPPANQSSATTSPHKKLHVSFKADKSTPLITAQQKAASSQQKSGTSQTTGNQGTGANPPANTAAAQKRRIDSKTMHALIAQGAENTTGPWLCLRCGVNGRPISIPSYRGFRRHLINTHKETIDPALCEHCGWRSVNNRELHFHMYMEHQTKSLLYTFAECALCNQSYRTKGELEAHINEVHTDDNKQQCIYCNKVFEQELQLYRHMKSYHKEQALEDGIIDETDEE"
